From US6001801A (Biomeasure, Inc., priority 1998, dated 1999)

Experiment: Boc solid-phase peptide synthesis; Benzylhydrylamine-polystyrene resin; diisopropylcarbodiimide
Details: whole synthesis

Substance	isolated mass (scale 0.25 mmole) [mg]	isolated mass (scale 0.5 mmole) [mg]
H2 -c[Cys-Asn-Phe-Phe-D-Trp-Lys-Thr-Phe-Cys]-NH2	21	–
H2 -c[Cys-Phe-Phe-D-Trp-Lys-Thr-Phe-Cys] -NH2 (WKTFC; Cys-Phe-Phe-D- N-terminal; cyclic; C-terminal amide; printed: Trp-Lys-Thr-Phe-Cys)	–	95
